From the supplement of paper PMC12067093, “Discovery and optimisation of a covalent ligand for TRIM25 and its application to targeted protein ubiquitination” (Chemical Science, 2025)
The other results are listed elsewhere or left out.

Protein sequences, listed by entry. Tags and fused reporters are not part of them. Lines headed by an entry give the natural chain unless they say otherwise; changes in a name come on top.
UniProt Q9UK41: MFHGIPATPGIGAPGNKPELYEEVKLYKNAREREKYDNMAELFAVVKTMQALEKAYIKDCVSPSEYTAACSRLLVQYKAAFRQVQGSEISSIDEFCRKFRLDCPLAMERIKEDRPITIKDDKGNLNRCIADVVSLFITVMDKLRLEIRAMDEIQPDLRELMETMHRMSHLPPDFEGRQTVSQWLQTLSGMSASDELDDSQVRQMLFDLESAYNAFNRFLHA
UniProt Q99536: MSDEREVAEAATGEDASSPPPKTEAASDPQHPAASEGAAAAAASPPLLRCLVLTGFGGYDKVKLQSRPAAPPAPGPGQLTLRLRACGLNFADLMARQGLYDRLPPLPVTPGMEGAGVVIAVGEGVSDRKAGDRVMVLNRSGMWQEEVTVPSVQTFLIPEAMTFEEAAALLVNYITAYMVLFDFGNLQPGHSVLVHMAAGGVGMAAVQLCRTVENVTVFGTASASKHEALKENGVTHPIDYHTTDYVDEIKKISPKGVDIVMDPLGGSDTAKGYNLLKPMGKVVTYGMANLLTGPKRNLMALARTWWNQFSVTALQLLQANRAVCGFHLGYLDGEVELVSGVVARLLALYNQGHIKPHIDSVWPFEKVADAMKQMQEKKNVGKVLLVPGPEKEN
UniProt P55072, whole entry, looked up: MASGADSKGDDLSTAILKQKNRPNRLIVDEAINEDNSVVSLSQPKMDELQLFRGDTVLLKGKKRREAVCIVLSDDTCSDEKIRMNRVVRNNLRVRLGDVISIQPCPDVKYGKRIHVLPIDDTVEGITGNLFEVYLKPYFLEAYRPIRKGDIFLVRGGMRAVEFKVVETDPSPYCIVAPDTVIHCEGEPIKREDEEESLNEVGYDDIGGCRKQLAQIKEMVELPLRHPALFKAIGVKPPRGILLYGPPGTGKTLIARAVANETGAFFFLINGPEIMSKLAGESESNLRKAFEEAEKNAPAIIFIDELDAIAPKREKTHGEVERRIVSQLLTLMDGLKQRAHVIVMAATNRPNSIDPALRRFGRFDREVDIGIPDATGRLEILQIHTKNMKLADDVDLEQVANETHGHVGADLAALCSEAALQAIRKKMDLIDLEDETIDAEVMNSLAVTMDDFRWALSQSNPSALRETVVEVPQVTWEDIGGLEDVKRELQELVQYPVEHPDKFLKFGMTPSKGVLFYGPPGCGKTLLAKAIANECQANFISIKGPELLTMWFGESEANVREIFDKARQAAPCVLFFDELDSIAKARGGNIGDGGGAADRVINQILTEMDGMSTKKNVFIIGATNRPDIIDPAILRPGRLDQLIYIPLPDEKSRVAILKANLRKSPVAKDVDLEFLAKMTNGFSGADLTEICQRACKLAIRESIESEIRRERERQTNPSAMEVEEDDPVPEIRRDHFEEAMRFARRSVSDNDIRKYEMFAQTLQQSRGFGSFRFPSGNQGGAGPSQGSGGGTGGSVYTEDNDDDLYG
UniProt O00507: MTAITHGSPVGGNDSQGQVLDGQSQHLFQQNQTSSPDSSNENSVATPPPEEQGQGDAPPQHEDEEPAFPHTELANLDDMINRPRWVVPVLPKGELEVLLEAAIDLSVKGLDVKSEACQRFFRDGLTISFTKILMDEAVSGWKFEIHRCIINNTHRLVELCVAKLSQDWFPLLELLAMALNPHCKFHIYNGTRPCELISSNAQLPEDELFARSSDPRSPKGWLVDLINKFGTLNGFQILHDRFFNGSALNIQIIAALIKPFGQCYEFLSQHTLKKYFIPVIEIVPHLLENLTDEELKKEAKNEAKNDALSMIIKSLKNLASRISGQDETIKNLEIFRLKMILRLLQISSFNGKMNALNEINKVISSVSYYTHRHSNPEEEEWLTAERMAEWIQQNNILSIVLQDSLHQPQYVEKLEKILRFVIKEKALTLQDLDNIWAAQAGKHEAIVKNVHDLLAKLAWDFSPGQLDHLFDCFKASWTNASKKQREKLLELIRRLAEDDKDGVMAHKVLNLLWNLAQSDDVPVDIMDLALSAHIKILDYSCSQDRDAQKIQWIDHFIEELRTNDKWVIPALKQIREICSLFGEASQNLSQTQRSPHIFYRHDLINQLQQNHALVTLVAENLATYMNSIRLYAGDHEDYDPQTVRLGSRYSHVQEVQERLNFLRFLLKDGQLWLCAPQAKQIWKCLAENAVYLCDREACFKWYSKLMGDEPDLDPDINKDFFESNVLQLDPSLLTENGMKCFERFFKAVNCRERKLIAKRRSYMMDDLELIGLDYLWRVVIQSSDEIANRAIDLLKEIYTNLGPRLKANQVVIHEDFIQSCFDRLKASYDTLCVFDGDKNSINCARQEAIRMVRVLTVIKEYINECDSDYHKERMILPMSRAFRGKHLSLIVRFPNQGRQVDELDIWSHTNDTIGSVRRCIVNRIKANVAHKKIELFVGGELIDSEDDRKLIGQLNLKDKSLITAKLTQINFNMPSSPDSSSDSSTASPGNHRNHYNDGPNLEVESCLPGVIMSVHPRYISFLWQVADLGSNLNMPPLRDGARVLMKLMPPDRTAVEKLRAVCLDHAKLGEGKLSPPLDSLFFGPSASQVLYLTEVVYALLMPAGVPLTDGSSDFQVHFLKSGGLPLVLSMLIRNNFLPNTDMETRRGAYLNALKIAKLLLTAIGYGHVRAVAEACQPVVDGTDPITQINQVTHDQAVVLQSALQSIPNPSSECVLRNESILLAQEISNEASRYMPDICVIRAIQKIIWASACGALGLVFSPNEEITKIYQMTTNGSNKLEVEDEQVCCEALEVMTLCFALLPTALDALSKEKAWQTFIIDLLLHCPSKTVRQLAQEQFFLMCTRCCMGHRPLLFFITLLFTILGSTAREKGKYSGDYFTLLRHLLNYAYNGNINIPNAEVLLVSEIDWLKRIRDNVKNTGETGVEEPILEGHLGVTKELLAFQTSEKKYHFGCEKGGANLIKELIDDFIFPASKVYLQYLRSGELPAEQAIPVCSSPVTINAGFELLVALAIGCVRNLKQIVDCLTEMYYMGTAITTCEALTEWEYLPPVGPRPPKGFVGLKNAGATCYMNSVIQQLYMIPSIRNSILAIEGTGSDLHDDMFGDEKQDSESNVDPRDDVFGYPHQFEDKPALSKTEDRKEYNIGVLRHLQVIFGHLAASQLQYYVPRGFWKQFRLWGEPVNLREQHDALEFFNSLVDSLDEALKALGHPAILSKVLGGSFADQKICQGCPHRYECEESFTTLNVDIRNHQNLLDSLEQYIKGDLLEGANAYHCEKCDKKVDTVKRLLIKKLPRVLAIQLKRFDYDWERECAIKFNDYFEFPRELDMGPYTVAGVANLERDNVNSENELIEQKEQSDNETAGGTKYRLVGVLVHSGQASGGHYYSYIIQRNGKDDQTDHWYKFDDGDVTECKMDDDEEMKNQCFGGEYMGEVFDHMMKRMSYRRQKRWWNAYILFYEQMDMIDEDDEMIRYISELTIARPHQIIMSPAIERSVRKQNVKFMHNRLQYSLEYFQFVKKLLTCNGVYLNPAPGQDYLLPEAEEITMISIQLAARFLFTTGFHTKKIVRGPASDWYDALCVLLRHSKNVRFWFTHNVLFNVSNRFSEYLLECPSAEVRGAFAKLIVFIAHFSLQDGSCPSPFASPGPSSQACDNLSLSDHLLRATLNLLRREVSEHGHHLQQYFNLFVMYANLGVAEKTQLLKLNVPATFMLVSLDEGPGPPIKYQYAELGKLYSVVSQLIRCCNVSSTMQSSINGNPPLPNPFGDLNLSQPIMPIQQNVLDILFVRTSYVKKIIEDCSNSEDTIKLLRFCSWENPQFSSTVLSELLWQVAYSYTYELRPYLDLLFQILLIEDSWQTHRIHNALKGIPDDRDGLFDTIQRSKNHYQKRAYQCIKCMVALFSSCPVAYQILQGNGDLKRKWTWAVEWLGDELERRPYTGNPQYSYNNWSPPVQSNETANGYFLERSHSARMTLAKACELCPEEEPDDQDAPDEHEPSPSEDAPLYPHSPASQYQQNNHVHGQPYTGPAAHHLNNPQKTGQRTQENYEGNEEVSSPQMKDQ
UniProt Q96JH7: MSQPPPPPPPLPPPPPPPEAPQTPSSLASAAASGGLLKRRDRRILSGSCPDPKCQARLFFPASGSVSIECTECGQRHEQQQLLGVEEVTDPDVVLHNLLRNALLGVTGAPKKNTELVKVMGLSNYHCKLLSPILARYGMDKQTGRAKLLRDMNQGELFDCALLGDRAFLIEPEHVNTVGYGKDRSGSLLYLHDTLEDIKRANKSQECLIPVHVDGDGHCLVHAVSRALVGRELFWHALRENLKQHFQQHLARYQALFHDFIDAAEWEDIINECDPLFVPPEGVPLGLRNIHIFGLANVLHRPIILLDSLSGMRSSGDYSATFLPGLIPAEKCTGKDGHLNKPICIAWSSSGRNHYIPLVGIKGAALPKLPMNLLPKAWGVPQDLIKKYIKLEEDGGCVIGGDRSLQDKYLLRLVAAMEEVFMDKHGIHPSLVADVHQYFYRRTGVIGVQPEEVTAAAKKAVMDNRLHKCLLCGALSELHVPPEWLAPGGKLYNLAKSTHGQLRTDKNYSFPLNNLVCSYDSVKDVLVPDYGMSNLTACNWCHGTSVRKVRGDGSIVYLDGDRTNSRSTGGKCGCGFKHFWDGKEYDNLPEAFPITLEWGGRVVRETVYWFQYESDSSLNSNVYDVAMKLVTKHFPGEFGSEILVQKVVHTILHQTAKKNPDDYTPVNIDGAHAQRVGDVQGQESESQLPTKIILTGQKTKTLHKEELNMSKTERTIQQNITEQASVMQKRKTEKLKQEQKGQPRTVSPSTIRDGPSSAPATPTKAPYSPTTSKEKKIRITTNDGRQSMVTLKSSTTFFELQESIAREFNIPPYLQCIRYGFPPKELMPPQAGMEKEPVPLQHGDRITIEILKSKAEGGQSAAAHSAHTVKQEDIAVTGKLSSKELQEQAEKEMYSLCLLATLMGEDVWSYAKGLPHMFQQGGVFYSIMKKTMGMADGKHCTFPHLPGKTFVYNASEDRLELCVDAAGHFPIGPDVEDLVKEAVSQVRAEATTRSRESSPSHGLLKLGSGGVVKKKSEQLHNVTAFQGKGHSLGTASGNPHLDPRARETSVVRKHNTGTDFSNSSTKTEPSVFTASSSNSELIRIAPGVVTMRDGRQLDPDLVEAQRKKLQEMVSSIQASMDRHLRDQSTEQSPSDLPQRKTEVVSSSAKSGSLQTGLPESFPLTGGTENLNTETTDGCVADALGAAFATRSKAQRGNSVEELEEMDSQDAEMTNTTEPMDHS
UniProt P26640: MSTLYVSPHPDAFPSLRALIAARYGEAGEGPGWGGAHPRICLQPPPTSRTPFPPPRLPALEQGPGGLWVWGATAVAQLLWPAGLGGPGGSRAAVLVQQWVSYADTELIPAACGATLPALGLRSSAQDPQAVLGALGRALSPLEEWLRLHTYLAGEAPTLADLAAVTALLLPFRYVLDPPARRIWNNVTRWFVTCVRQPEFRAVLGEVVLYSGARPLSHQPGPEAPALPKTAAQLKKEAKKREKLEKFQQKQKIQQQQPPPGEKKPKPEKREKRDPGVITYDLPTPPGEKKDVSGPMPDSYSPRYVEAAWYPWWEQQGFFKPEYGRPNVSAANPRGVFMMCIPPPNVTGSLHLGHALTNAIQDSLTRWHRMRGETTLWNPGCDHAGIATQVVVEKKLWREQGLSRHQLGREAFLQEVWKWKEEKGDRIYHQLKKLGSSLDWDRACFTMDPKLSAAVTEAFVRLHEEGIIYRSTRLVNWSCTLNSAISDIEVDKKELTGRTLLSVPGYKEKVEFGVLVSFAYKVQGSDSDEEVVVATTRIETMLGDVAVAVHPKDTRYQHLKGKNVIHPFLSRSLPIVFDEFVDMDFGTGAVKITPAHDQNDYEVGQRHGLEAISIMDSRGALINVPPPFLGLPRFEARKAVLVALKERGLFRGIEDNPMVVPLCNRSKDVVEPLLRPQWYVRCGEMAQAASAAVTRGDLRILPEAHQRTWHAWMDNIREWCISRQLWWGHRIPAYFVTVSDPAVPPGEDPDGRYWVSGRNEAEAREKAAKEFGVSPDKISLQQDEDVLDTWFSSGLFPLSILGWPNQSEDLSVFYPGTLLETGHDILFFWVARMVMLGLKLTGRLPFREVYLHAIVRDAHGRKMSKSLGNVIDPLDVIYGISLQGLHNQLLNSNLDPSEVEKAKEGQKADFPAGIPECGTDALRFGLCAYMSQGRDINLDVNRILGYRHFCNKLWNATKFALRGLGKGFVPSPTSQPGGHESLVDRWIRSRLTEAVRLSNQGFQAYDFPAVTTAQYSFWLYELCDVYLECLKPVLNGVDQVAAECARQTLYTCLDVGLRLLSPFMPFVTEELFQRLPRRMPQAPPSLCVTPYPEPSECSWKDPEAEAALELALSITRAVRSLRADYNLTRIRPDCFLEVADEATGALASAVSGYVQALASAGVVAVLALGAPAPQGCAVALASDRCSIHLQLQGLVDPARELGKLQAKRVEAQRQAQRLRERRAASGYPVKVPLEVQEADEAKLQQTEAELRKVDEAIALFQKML

Compound: CC1Cc2ccccc2N1C(=O)C1CCCN(C1)C(=O)CCl (mixture of isomers) [TRIM25 ligand 11 (diastereomer mixture)]
Experiment: probe-labelled cysteine peptide fold change vs DMSO (competition) (log2 fold change); higher = less target engagement (more negative = stronger competition)
Settings: THP-1, incubation time: 4 h
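Further: competitive chemoproteomic profiling in live THP-1 cells with an iodoacetamide desthiobiotin (IA-DTB) probe, comparing probe-labelled peptide intensities in compound-treated cells against DMSO-treated controls.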

Target | probe-labelled cysteine peptide fold change (10 µM) | probe-labelled cysteine peptide fold change (50 µM)
UTP20_O75691_2594_IKEDLEEQEALEDGVACADEK (UniProt O75691) | 0.0479 | 0.017
VPS4B_O75351_240_ENKPSIIFIDEIDSLCGSR (UniProt O75351) | -0.0128 | -0.181
VPS13C_Q709C8_2588_CQLFIQPAGILEHQYK (UniProt Q709C8) | 0.0612 | 0.0461
UXS1_Q8NBZ7_242_VAETMCYAYMK (UniProt Q8NBZ7) | -0.0496 | -0.176
UTRN_P46939_447_METCPLDDDVK (UniProt P46939) | -0.0199 | -0.0786
VTA1_Q9NP79_38_RDPVVAYYCR (UniProt Q9NP79) | -0.0618 | 0.104
VPS28_Q9UK41_96_QVQGSEISSIDEFCR (UniProt Q9UK41) | -0.0943 | 0.105
UTRN_P46939_1218_VPSGGQELTSELNVVLENYQLLCNR (UniProt P46939) | -0.243 | 0.00523
VAT1_Q99536_50_CLVLTGFGGYDK (UniProt Q99536) | -0.0216 | -0.00631
VCP_P55072_691_MTNGFSGADLTEICQR (UniProt P55072) | -0.0324 | 0.00465
VWA8_A3KMH1_858_APTNVTCILK (UniProt A3KMH1) | 0.165 | 0.211
USP9Y_O00507_684_CLAENAVYLCDR (UniProt O00507) | 0.141 | 0.101
USP9X_Q93008_1061_AICLDHAK (UniProt Q93008) | 0.132 | 0.0679
VPS4A_Q9UN37_233_QHKPSIIFIDEVDSLCGSR (UniProt Q9UN37) | -0.0156 | -0.00261
VPS16_Q9H269_36_KYELYSMDWDLKEELRDCLVAAAPYGGPIALLR (UniProt Q9H269) | -0.407 | -0.0887
VPS13B_Q7Z7G8_1993_CIDPGK (UniProt Q7Z7G8) | -0.05 | -0.0208
VPS28_Q9UK41_103_FRLDCPLAMER (UniProt Q9UK41) | -0.136 | -0.217
VCPIP1_Q96JH7_469_CLLCGALSELHVPPEWLAPGGK (UniProt Q96JH7) | -0.198 | -0.24
VAT1_Q99536_86_ACGLNFADLMAR (UniProt Q99536) | 0.00421 | -0.0371
VIRMA_Q69YN4_557_CHFYEVLSEIKR (UniProt Q69YN4) | 0.174 | 0.171

Copied from the entries so far for reference:
Target | probe-labelled cysteine peptide fold change (10 µM) | probe-labelled cysteine peptide fold change (50 µM)
VPS28_Q9UK41_103_FRLDCPLAMER (UniProt Q9UK41) | -0.136 | -0.217
VCPIP1_Q96JH7_469_CLLCGALSELHVPPEWLAPGGK (UniProt Q96JH7) | -0.198 | -0.24

Continued.

Target | probe-labelled cysteine peptide fold change (10 µM) | probe-labelled cysteine peptide fold change (50 µM)
UTRN_P46939_1059_QLDQCSAFVNEIETIESSLK (UniProt P46939) | 0.0719 | 0.12
VPS39_Q96JC1_681_LICDFPFDGLLEER (UniProt Q96JC1) | 0.145 | 0.086
VCPIP1_Q96JH7_538_DVLVPDYGMSNLTACNWCHGTSVR (UniProt Q96JH7) | 0.0851 | 0.205
VAV1_P15498_652_NTSTNEIGWFPCNR (UniProt P15498) | 0.00386 | -0.0666
VCP_P55072_69_REAVCIVLSDDTCSDEK (UniProt P55072) | -0.0101 | -0.185
VPS11_Q9H270_890_CSNDSFSVIADYFGR (UniProt Q9H270) | -0.0101 | -0.0874
VAPA_Q9P0L0_128_CVFEMPNENDK (UniProt Q9P0L0) | -0.189 | -0.346
VCL_P18206_545_CDRVDQLTAQLADLAAR (UniProt P18206) | -0.0502 | 0.105
VLDLR_P98155_108_CDGDPDCEDGSDESPEQCHMR (UniProt P98155) | 0.042 | -0.00324
WAC_Q9BTA9_15_LSDGCHDR (UniProt Q9BTA9) | 0.0462 | -0.212
VPS45_Q9NRW7_359_NLLEVSEVEQELACQNDHSSALQNIK (UniProt Q9NRW7) | 0.273 | -0.0913
VLDLR_P98155_367_ECHINECLVNNGGCSHICK (UniProt P98155) | -0.00363 | 0.189
VAC14_Q08AM6_79_KGGLIGLAACSIALGK (UniProt Q08AM6) | -0.0529 | -0.0136
VARS_P26640_682_CGEMAQAASAAVTR (UniProt P26640) | -0.153 | -0.0782
VCP_P55072_522_GVLFYGPPGCGK (UniProt P55072) | -0.032 | -0.107
VARS_P26640_479_LVNWSCTLNSAISDIEVDK (UniProt P26640) | 0.193 | 0.0394
VPS8_Q8N3P4_925_IIDCYLRDPLREEEVFNYIHNILSIPGHSAEEK (UniProt Q8N3P4) | 0.0571 | 0.0996
USP9Y_O00507_1735_ICQGCPHRYECEESFTTLNVDIR (UniProt O00507) | -0.133 | -0.0638
VAPB_O95292_121_CVFELPAENDKPHDVEINK (UniProt O95292) | -0.0428 | -0.126
USP7_Q93009_925_DLLEECK (UniProt Q93009) | 0.197 | 0.157
